Laboratory results taken from PubChem BioAssay AID493014 (National Center for Advancing Translational Sciences (NCATS), 2011).
The list shows a part of the results. Further columns of the screen follow, without active or inactive calls. Compounds called inactive in the main read-out are mostly missing here. Potencies come from curve fits of mixed quality, noted in brackets.

Test: qHTS Assay to Find Inhibitors of Chronic Active B-Cell Receptor Signaling
Conditions: ABC-DLBCL IkBa-CBG/CBR reporter, luminescence ratio (green luciferase fused to IkBa over red control in TMD8 lymphoma cells), 4 h
How it was run: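 Concentration-response series (up to 46 uM) were applied to TMD8 dual-reporter cells for 4 h at 37C with doxycycline. Green/red ratio, after filter-overlap correction, defined %Activity; red signal alone was normalised to basal cells and zero luminescence.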

[1] = measured here: CBR red luminescence, cell number
[2] = measured here: IkBa-CBG green luminescence

Cc1cccc(-c2nc3scc(CCNS(=O)(=O)c4c(C)noc4C)n3n2)c1
AC50 [1]: 17.8 µM [falling, single point]

Cc1ccc2c(c1)c(=O)c1c3n2CCN(C(=O)CCl)C3CC1 (centres undefined)
AC50 [1]: 8.2 µM [falling, partial curve, poor fit]

O=C(NCCCN=C1NS(=O)(=O)c2ccccc21)c1ccc(S(=O)(=O)N2CCCCC2)cc1
AC50 [1]: 29.1 µM [rising, single point] | AC50 [2]: 18.4 µM [falling, single point]

O=C(Nc1ccc(Cl)cc1)C1=Cc2ccccc2OC1
AC50 [1]: 11.6 µM [falling, partial curve]

c1ccc(Nc2nc(NCCN3CCOCC3)nc(Nc3ccccc3)n2)cc1
AC50 [1]: 6.31 µM [falling, partial curve, poor fit]

O=C(Nc1nc(-c2cccs2)cs1)c1ccc(Cl)cc1
AC50 [1]: 6.51 µM [falling, partial curve, poor fit] | AC50 [2]: 4.61 µM [rising, partial curve, poor fit]

COc1ccccc1NC(=S)NC(NC(C)=O)C(Cl)(Cl)Cl (centres undefined)
AC50 [1]: 25.1 µM [falling, partial curve, poor fit]

NC(=O)COC(=O)c1ccc(C(=O)C(=O)c2ccccc2)cc1
AC50 [1]: 3.55 µM [rising, single point]

O=C(Nc1cccnc1)c1c(O)c2cccc3c2n(c1=O)CC3
AC50 [1]: 9.2 µM [falling, single point]

Cc1ccc(C(=O)C=CNNC(=O)c2ccccc2)cc1
AC50 [1]: 20 µM [falling, partial curve]

O=C(CSc1nc(-c2ccccc2)cs1)Nc1cccc([N+](=O)[O-])c1
AC50 [1]: 29.1 µM [falling, single point]

CCC(=O)[C@@]1(C)[C@H](C)C[C@H]2[C@@H]3CCC4=CC(=O)C=C[C@]4(C)[C@H]3[C@@H](O)C[C@@]21C
AC50 [1]: 2.59 µM [rising, partial curve] | AC50 [2]: 7.31 µM [falling, partial curve, poor fit]

C=CCOc1ccc(/C=C(\C#N)C(=O)Nc2ccccn2)cc1OC
AC50 [1]: 20 µM [rising, single point]

COc1ccc(OC)c(-c2nnc3n2N=C(c2ccc(OC)c(OCC4CC4)c2)CS3)c1
AC50 [1]: 0.259 µM [rising, partial curve, poor fit] | AC50 [2]: 0.103 µM [falling, full curve]

COc1ccc(NC(=O)Nc2nc3c(s2)CCCC3)cc1
AC50 [1]: 20.6 µM [falling, single point]

O=C1C=C(NC(=O)Nc2ccc(Cl)c(Cl)c2)CCC1
AC50 [1]: 1.78 µM [rising, full curve, poor fit]

CCOc1ccc(OCc2cccc(C(=O)Nc3ccc(CN4CCCCC4)cc3)c2)cc1
AC50 [1]: 29.1 µM [falling, single point]

CCC1=NC(c2ccc(Br)cc2)N(O)C1(C)C (centres undefined)
AC50 [1]: 11.2 µM [rising, partial curve, poor fit]

S=c1nc(-c2ccc(Cl)cc2)[nH][nH]1
AC50 [1]: 17.8 µM [rising, single point]

CCOC(=O)c1ccc2ncc(C(=O)OCC)c(NCc3ccco3)c2c1
AC50 [1]: 25.1 µM [falling, single point]

Cc1cc(C(C)(C)C)cc(C)c1C[n+]1ccc2ccccc2c1
AC50 [1]: 22.4 µM [falling, partial curve, poor fit]

COc1ccc(C(=O)OCC(=O)Nc2nnc(-c3ccccc3)o2)cc1
AC50 [2]: 35.5 µM [falling, single point]

CCn1c(SC(C)C)nnc1-c1c[nH]c2ccccc12
AC50 [1]: 4.61 µM [rising, full curve, poor fit]

Nc1ccc(-c2nc3ccc(N)cc3o2)cc1
AC50 [1]: 29.1 µM [falling, single point]

O=C(/C=C/c1ccc([N+](=O)[O-])cc1)NCc1cccs1
AC50 [1]: 23.1 µM [falling, single point]

NC(=S)n1[nH]c(-c2ccc([N+](=O)[O-])cc2)c(N=Nc2cccc([N+](=O)[O-])c2)c1=O
AC50 [1]: 3.98 µM [rising, partial curve]

COC(=O)c1ccc(CSc2ncnc3ccccc23)o1
AC50 [1]: 0.731 µM [rising, full curve, poor fit]

CCCN(CCC)S(=O)(=O)c1ccc2c(c1)N(CC(=O)NCc1ccc(F)cc1Cl)C(=O)CS2
AC50 [2]: 17.8 µM [rising, partial curve, poor fit]

O=C(C1CCN(c2nc(-c3ccccc3)nc3c2CCC3)CC1)N1CCC(O)CC1
AC50 [1]: 15.8 µM [falling, single point]

CSc1ccc(C2=CC(=O)C[C@H](c3ccc(F)cc3)C2)cc1
AC50 [1]: 29.1 µM [rising, single point]

Cn1cccc1/C=N/NC(=O)c1cccnc1
AC50 [1]: 29.1 µM [falling, single point]

O=C(Nc1cccn2ncnc12)C(Cl)Cl
AC50 [1]: 22.4 µM [falling, single point]

COC(=O)c1c(NC(=O)CN2C(=O)NC(CCc3ccccc3)C2=O)sc2c1CCCCC2 (centres undefined)
AC50 [1]: 0.13 µM [falling, full curve, poor fit]

COc1cccc(C(=O)c2cc3cc(Cl)ccc3[nH]2)c1
AC50 [1]: 2.82 µM [rising, full curve]

O=C(Nc1cccc(-c2csc(Nc3ccccc3)n2)c1)c1ccccc1
AC50 [1]: 11.2 µM [falling, partial curve]

Cc1ccnc(NC(=S)NC(=O)c2cccs2)c1
AC50 [1]: 14.6 µM [falling, partial curve] | AC50 [2]: 23.1 µM [falling, single point]

O=C(O)C(Cc1ccc(Cl)cc1)Sc1nc2ccccc2[nH]1 (centres undefined)
AC50 [1]: 3.55 µM [rising, single point]

Cc1ccc(-c2n[nH]c3c2C(c2cccc(O)c2)N(c2ccc(C(=O)O)cc2)C3=O)cc1 (centres undefined)
AC50 [1]: 14.1 µM [falling, partial curve, poor fit]

COC(=O)c1cc(C(=O)OCC(=O)NC(=O)NCc2ccccc2)cc([N+](=O)[O-])c1
AC50 [1]: 25.9 µM [rising, single point]

Cc1ccccc1OCC(=O)NNC(=O)C1CCN(c2ncnc3sc(C)c(C)c23)CC1
AC50 [1]: 4.11 µM [rising, partial curve, poor fit]

Cn1cc(CN2CCCC(C(=O)c3cccs3)C2)c(-c2cccc(Cl)c2)n1 (centres undefined)
AC50 [1]: 0.631 µM [rising, full curve, poor fit]

O=[N+]([O-])c1cccnc1N1CCN(Cc2ccc3c(c2)OCO3)CC1
AC50 [1]: 6.31 µM [rising, full curve, poor fit]

CCCCN(C(=O)c1c(C)[nH]c(C(=O)OCC)c1C)c1ccccc1
AC50 [1]: 10 µM [falling, partial curve]

COC(=O)CC1=NN(c2ccc(OC)cc2)C(=O)C1
AC50 [1]: 28.2 µM [falling, single point]

CCCN=C1CC(C)(C)CC(=O)/C1=C(/O)CCCN1C(=O)c2ccccc2C1=O
AC50 [1]: 2.24 µM [rising, full curve, poor fit]

O=C(Nc1cc(Cl)ccc1N1CCOCC1)c1ccc(N2CCCC2=O)cc1
AC50 [1]: 10.3 µM [falling, partial curve, poor fit]

Cc1ccc2sc(NNC(=O)c3ccc4c(c3)OCCO4)nc2c1C
AC50 [1]: 16.4 µM [falling, partial curve, poor fit]

COc1ccc(NC(=O)CCCC(=O)OCC(F)(F)C(F)F)cc1
AC50 [1]: 29.1 µM [rising, single point]

Cc1ccc(-c2nc3ccccc3[nH]c2=O)cc1
AC50 [1]: 0.708 µM [rising, full curve, poor fit]

CCOC(=O)c1ccc(N2C(=O)c3n[nH]c(-c4ccco4)c3C2c2ccc([N+](=O)[O-])cc2)cc1 (centres undefined)
AC50 [1]: 29.1 µM [falling, single point] | AC50 [2]: 32.6 µM [rising, partial curve, poor fit]

COc1cccc2c1c(NC(=O)Nc1ccc(F)cc1F)nn2C
AC50 [1]: 0.794 µM [falling, full curve, poor fit]

CN(CC(=O)Nc1c(Cl)cccc1Cl)C(=O)CCC(=O)c1ccccc1
AC50 [1]: 29.1 µM [rising, single point]

Cc1nn(-c2ccccc2)c(Cl)c1/C=N/NC(=O)c1ccn[nH]1
AC50 [1]: 7.08 µM [falling, partial curve, poor fit]

N=c1c2c3c(sc2ncn1Nc1ccccc1)CCC3
AC50 [1]: 35.5 µM [falling, single point]

O=C(CSc1cccc[n+]1[O-])c1ccc(Cl)cc1
AC50 [1]: 7.08 µM [falling, full curve] | AC50 [2]: 3.16 µM [falling, full curve]

Oc1ccc2c(c1)C1CCCC1(N1CCOCC1)O2 (centres undefined)
AC50 [1]: 4.61 µM [falling, full curve, poor fit]

Cn1nnnc1Sc1ncnc2scc(-c3ccc(Cl)cc3)c12
AC50 [1]: 4.11 µM [falling, single point] | AC50 [2]: 29.1 µM [falling, single point]

CCn1c2ccccc2c2cc(N)ccc21
AC50 [1]: 35.5 µM [falling, single point]

CC(C)(C)c1ccc(C(=O)Nc2c3c(nn2C(C)(C)C)CS(=O)(=O)C3)cc1
AC50 [1]: 7.94 µM [rising, partial curve, poor fit]

COc1ccccc1NC(=O)N1CCN(c2ccccc2F)CC1
AC50 [1]: 4.61 µM [rising, full curve, poor fit]

COc1cc(C2NCC(c3ccc(Cl)cc3Cl)c3c2[nH]c2ccccc32)cc(OC)c1OC (centres undefined)
AC50 [1]: 29.1 µM [falling, single point]
